Assay [1] deals with T1, BMPR2-Fc (G&P Biosciences) (UniProt Q13873).
T1 sequence (looked up): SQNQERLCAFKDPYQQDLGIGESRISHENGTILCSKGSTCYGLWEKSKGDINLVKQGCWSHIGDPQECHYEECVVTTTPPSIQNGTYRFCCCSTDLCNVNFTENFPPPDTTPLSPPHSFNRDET
Description: summary of the examples (biopanning, phage ELISA).

By UniProt entry, the sequences of proteins in these tests, tags left out. Residues count along the entry.
UniProt P36894, residues 24-152: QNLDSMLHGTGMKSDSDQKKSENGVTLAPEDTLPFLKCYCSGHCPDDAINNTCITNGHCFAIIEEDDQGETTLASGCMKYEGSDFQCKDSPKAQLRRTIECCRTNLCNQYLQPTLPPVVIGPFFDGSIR

For assay [2], the target named is BMPR1A-Fc (G&P Biosciences) (UniProt P36894). Description: summary of the examples (biopanning, phage ELISA).
The target in assay [3] is T1, BMPR2-Fc (G&P Biosciences). Briefly: phage display biopanning on immobilized BMPR2-Fc, frequency among sequenced plaques.
For assay [4], the target named is T1, BMPR2-Fc (G&P Biosciences). Description: phage ELISA on coated receptor, anti-phage antibody, A450.
Assay [5] has as its target T1, BMPR2-Fc (G&P Biosciences). Briefly: summary of the examples (biopanning).
Assay [6] deals with BMPR1A-Fc (G&P Biosciences) (UniProt P36894). Description: summary of the examples (biopanning).
The target is the same in assay [7]. Description: phage display biopanning on immobilized BMPR1A-Fc, frequency among sequenced plaques.
Assay [8] has the same target. Briefly: phage ELISA on coated receptor, anti-phage antibody, A450.
In assay [9] the target is T1, BMPR2-Fc (G&P Biosciences). Description: phage ELISA on coated receptor, anti-phage antibody, A450; also found by biopanning on BMPR2 alone.
In assay [10] the target is BMPR1A-Fc (G&P Biosciences) (UniProt P36894). Description: phage ELISA on coated receptor, anti-phage antibody, A450; also found by biopanning on BMPR1A alone.

These are yes or no findings as the source states them, for the method shown. Some entries that bind do so weakly or less than the wild type. For part of these data: Where a sequence is shown, tags or fusion partners need not be part of it.

As to GNNPLHVHHDKR (peptide, not shown: large carriers) [… (SEQ ID NO:5) displayed on the p3 coat protein of M13 phage], the binding result in assay [1] and in [2] was “binds” each time.
As for RDYHPRDHTATW (peptide, not shown: large carriers) [… (SEQ ID NO:4) displayed on the p3 coat protein of M13 phage], the binding result in assay [1], in assay [2], in [3] and in assay [4] was “binds” throughout.
With TSKYLTMRPGPK (peptide, not shown: large carriers) [… (SEQ ID NO:10) displayed on the p3 coat protein of M13 phage], the binding entry in [5] and in assay [6] was “binds” throughout.
TAKSLPMRPGPL (peptide, not shown: large carriers) [… (SEQ ID NO:6) displayed on the p3 coat protein of M13 phage]: the binding entry in assay [5] and in assay [6] was “binds” throughout.
With DYHDPSLPTLRK (peptide, not shown: large carriers) [… (SEQ ID NO:8) displayed on the p3 coat protein of M13 phage], the binding result in assay [1] and in [2] was “binds” throughout.
Regarding TAKYLPMRPGPL (peptide, not shown: large carriers) [… (SEQ ID NO:1) displayed on the p3 coat protein of M13 phage], the binding entry in [1], in [2], in assay [7] and in assay [8] was “binds” in each case.
For the molecule SGTQDSMVGWNK (peptide, not shown: large carriers) [… (SEQ ID NO:3) displayed on the p3 coat protein of M13 phage], the binding result in assay [9], in assay [1], in assay [2] and in assay [10] was “binds” throughout.
With NAKYPTMRPGPL (peptide, not shown: large carriers) [… (SEQ ID NO:9) displayed on the p3 coat protein of M13 phage], the binding entry in assay [1] and in assay [2] was “binds” each time.
NAKYPTMRPGPK (peptide, not shown: large carriers) [… (SEQ ID NO:7) displayed on the p3 coat protein of M13 phage]: the binding entry in assay [5] and in assay [6] was “binds” in each case.
With VHVPLHRGAVSA (peptide, not shown: large carriers) [… (SEQ ID NO:2) displayed on the p3 coat protein of M13 phage], the binding result in assay [1], in [2] and in assay [8] was “binds” throughout.

(Values after patent US20210369812A1, “OSTEOINDUCTIVE PEPTIDES, COMPOSITIONS, IMPLANTS, AND METHODS OF USE” (The Board of Regents of the University of Oklahoma, priority 2018, published 2021).)
